Measured data: PubChem BioAssay AID686943 (Drosophila RNAi Screening Center, 2013)

- Test: 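Search across the genome for regulators of signalling from receptor tyrosine kinase to ERK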 (primary screen)
- Cell system: Drosophila S2R+ haemocyte-like cells expressing YFP-tagged ERK (Rolled)
- Reagent: long dsRNA against Drosophila genes
- Challenge: insulin stimulation versus unstimulated cells; dose and duration not given
- Detection: 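Antibody staining for doubly phosphorylated ERK divided by ERK-YFP signal, as plate z-scores, in insulin-treated and untreated cells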
- Reading the numbers: replicate 1, z-score of dpERK with insulin: higher = more active ERK per ERK-YFP after insulin
In all, the deposit lists about 23,000 reagents; below is an unselected part of those that have a named target and a result. 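Extra replicates exist only for a retested subset of genes; insulin dose and duration not given; both raised and lowered dpERK matter.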 A plus sign joins genes that one reagent is predicted to hit. Further read-outs or replicates are left out here. The record does not give: the amount of reagent, the time to read-out.

no.	target gene	dsRNA	replicate 1, z-score of dpERK with insulin
1	Fbw5	DRSC03146	0.26
2	CG10254	DRSC14153	-0.59
3	CG1785	DRSC18139	0.19
4	CG31287	DRSC13138	-0.78
5	Cyp12b2	DRSC07364	0.43
6	JMJD6	DRSC15787	-0.52
7	syd	DRSC10963	0.03
8	RfC3	DRSC03411	0.22
9	B52	DRSC14121	0.39
10	Ama	DRSC12489	0.82
11	repo	DRSC16369	0.26
12	CG10919	DRSC14283	0.13
13	Drip	DRSC07405	0.24
14	Srpk79D	DRSC11668	0.14
15	Srpk79D	DRSC11856	-0.08
16	Nha2 + asRNA:CR43454	DRSC13594	1.72
17	PhKgamma	DRSC20268	0.33
18	CG4213	DRSC00641	0.6
19	BomT3	DRSC13537	-0.09
20	BomT3	DRSC15871	1.07
21	Agpat1	DRSC19879	0.28
22	Agpat1	DRSC19880	0.26
23	CG4287	DRSC15559	0.11
24	Tnks	DRSC14154	0
25	lolal	DRSC06948	-1.82
26	Ssdp	DRSC16211	-0.45
27	Skadu	DRSC01490	0.18
28	CG11360	DRSC17124	0.42
29	CG11360	DRSC17134	0.69
30	CG42380 + CG42379 + PIG-M + 1 more	DRSC03884	-0.79
31	CG42380 + CG42379 + PIG-M + 1 more	DRSC04580	-0.95
32	SkpC	DRSC20375	1.53
33	Ir7b	DRSC18009	-1.1
34	Lk6	DRSC12867	-1.74
35	Lk6	DRSC16728	0.19
36	CG5126	DRSC00680	1.1
37	CG4293	DRSC18557	-0.97
38	CG9483	DRSC03226	-0.57
39	Pa1	DRSC19422	0.2
40	Lgr3	DRSC15704	-1.12
41	Lgr3	DRSC15706	-1.75
42	tex	DRSC16517	-0.78
43	mthl12	DRSC12964	-0.78
44	VAChT	DRSC13311	-0.26
45	VAChT	DRSC16608	-0.45
46	Pak	DRSC12602	-0.69
47	Gas41	DRSC03156	-0.32
48	B9d1	DRSC14993	0.9
49	CG10300	DRSC14225	0.51
50	sut4	DRSC07703	0.1
51	red	DRSC14477	-1.96
52	soti	DRSC16432	0.46
53	Trc8	DRSC15437	0.13
54	PK2-R2	DRSC16448	-0.39
55	CG18649	DRSC10334	0.55
56	mRF1	DRSC02880	-0.25
57	Sf3b3	DRSC08370	2.94
58	bun	DRSC01253	0.27
59	bun	DRSC01255	1.43
60	bun	DRSC03500	-0.03
61	CG12490	DRSC04123	0.28
62	CG14647	DRSC12233	0.41
63	CG14647	DRSC22497	0.03
64	mei-S332	DRSC04704	0.2
65	CG6508	DRSC02963	0.45
66	Chd1	DRSC00745	1.09
67	CG3701 (retired record)	DRSC04408	0.19
68	CG3701 (retired record)	DRSC04409	-1.09
69	CG10175	DRSC13628	0.08
70	CG10175	DRSC14200	0.74
71	CG10175	DRSC21981	-0.02
72	Cul3	DRSC03537	0.61
73	Cul3	DRSC21525	-0.11

Entries listed so far whose gene name starts with M or m (3):
target gene	dsRNA	replicate 1, z-score of dpERK with insulin
mthl12	DRSC12964	-0.78
mRF1	DRSC02880	-0.25
mei-S332	DRSC04704	0.2
